Results from article PMC7418988, “IgaA negatively regulates the Rcs Phosphorelay via contact with the RcsD Phosphotransfer Protein” (PLoS Genetics, 2020).
Results are given in words; binding and its absence hold for the method and conditions named. Sequences can lack the tags named with a protein.

Columns and labels:
Assay in all cases: two-hybrid; bacterial adenylate cyclase two-hybrid (BACTH): T18 and T25 fragments fused C-terminally to the two proteins, two plasmids in cyaA deficient E. coli BTH101; beta-galactosidase activity (Miller units) against fusion plus empty cognate vector as background; threshold for reliable interaction 4x over background; IgaA/RcsD also tested in rcsB, rcsC, rcsF and rcsD mutant hosts; in the rows the T25 fusion is the binder, the T18 fusion the target
[1] = biological target: T1, RcsC_(326-C)-T18 (E. coli) (UniProt P0DMC5)
T1 sequence: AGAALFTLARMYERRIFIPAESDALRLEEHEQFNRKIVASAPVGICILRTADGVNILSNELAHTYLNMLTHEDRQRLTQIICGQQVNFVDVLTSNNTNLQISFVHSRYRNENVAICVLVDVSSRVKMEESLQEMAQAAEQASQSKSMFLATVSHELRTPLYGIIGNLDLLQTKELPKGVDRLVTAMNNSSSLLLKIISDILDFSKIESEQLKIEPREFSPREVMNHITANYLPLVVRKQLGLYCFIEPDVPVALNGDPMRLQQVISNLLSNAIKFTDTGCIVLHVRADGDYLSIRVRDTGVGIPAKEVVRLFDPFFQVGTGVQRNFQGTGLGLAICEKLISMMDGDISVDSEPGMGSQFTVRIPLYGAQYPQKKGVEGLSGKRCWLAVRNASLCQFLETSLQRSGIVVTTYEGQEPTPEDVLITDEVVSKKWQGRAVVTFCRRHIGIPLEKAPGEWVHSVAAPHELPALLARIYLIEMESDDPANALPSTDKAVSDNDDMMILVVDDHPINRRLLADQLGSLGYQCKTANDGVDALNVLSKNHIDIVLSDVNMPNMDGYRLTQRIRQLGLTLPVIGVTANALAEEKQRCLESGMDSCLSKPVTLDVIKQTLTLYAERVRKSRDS

[2] = biological target: T2, RcsC fused to the T18 or the T25 fragment of adenylate cyclase (E. coli) (UniProt P0DMC5)
T2 sequence: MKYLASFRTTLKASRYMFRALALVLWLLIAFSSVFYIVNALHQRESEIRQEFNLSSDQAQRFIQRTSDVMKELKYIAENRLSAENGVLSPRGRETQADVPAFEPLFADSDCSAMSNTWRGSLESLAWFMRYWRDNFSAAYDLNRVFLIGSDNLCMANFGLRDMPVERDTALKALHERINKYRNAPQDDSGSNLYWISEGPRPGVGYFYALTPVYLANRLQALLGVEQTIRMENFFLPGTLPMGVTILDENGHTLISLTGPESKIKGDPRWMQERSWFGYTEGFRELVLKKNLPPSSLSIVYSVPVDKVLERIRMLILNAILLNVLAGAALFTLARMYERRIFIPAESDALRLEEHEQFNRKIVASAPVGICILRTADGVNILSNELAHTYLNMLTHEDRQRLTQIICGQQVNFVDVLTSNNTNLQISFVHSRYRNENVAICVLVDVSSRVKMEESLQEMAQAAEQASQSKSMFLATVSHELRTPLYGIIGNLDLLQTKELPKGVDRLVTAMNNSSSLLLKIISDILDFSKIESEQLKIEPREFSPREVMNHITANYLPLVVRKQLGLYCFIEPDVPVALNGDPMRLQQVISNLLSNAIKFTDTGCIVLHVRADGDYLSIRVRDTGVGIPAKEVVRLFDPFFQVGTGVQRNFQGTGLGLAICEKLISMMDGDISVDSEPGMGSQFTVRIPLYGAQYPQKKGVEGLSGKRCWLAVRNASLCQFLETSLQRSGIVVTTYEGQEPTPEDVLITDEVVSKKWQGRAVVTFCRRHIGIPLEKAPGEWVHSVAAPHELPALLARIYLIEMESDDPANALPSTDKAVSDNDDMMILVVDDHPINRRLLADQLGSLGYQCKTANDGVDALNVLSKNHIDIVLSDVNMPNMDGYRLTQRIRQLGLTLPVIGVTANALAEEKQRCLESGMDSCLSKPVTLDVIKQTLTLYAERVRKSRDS

[3] = biological target: T3, RcsC_(Δ45-314)-T18 (E. coli) (UniProt P0DMC5)
T3 sequence: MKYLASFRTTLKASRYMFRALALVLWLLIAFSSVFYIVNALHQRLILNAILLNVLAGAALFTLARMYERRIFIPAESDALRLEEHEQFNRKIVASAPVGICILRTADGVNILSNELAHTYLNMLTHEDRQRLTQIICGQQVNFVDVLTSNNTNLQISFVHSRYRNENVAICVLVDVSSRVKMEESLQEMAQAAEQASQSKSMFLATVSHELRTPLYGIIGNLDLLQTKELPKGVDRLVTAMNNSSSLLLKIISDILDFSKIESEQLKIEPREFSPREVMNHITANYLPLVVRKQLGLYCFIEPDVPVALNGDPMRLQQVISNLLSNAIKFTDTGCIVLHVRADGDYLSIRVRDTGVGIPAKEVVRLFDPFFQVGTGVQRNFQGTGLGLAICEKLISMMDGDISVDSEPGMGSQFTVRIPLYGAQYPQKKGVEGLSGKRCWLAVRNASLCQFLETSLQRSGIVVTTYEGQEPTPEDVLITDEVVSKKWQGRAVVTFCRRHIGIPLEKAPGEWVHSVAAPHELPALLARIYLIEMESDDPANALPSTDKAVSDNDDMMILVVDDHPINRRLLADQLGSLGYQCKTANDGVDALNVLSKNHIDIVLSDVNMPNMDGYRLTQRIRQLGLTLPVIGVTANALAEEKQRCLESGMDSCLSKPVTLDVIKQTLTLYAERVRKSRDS

binding [1]: no binding | binding [2]: no binding | binding [3]: no binding
B1: IgaA fused to the T18 or the T25 fragment of adenylate cyclase (natural protein, E. coli, UniProt P45800 1-711, looked up)
chain: MSTIVIFLAALLACSLLAGWLIKVRSRRRQLPWTNAFADAQTRKLTPEERSAVENYLESLTQVLQVPGPTGASAAPISLALNAESNNVMMLTHAITRYGISTDDPNKWRYYLDSVEVHLPPFWEQYINDENTVELIHTDSLPLVISLNGHTLQEYMQETRSYALQPVPSTQASIRGEESEQIELLNIRKETHEEYALSRPRGLREALLIVASFLMFFFCLITPDVFVPWLAGGALLLLGAGLWGLFAPPAKSSLREIHCLRGTPRRWGLFGENDQEQINNISLGIIDLVYPAHWQPYIAQDLGQQTDIDIYLDRHVVRQGRYLSLHDEVKNFPLQHWLRSTIIAAGSLLVLFMLLFWIPLDMPLKFTLSWMKGAQTIEATSVKQLADAGVRVGDTLRISGTGMCNIRTSGTWSAKTNSPFLPFDCSQIIWNDARSLPLPESELVNKATALTEAVNRQLHPKPEDESRVSASLRSAIQKSGMVLLDDFGDIVLKTADLCSAKDDCVRLKNALVNLGNSKDWDALVKRANAGKLDGVNVLLRPVSAESLDNLVATSTAPFITHETARAAQSLNSPAPGGFLIVSDEGSDFVDQPWPSASLYDYPPQEQWNAFQKLAQMLMHTPFNAEGIVTKIFTDANGTQHIGLHPIPDRSGLWRYLSTTLLLLTMLGSAIYNGVQAWRRYQRHRTRMMEIQAYYESCLNPQLITPSESLIE
notes: IgaA (E. coli homolog, gene yrfF), five-pass inner membrane protein; Two fusions of the same protein, each chain with ONE of the two tags: T18 (pEAW1) or T25 (pEAW2); also called YrfF; IgaA-T18; source: bacterial two-hybrid (BACTH) fusion, expressed from a plasmid in E. coli BTH101; not shown: T18 fragment of Bordetella adenylate cyclase (Cya), C-terminal, kept; T25 fragment of Bordetella …
